26 compounds from the supplement of paper PMC4635364 can be followed below.

In test [1] the test system is ReNCell VM. As to the kind of experiment: neuronal differentiation score (DCX+ cell fraction vs untreated, manual image score) (score (-3 to 3)); higher = more neuronal differentiation. To be noted: 2 uM, 2 weeks.
Test [2] has as its system ReNCell VM. As to the kind of experiment: dopaminergic neuron differentiation score (TH+ cell fraction vs untreated, manual image score) (score (0 to 3)); higher = more TH+ dopaminergic neuron differentiation. To be noted: 2 uM, 4 weeks, BDNF 10 ng/ml + GDNF 10 ng/ml.

Structures can show the parent of a compound that is named as a salt. Some of the results follow. This data set is noisy: repeats of one test often differ as much as different tests do.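 ReNCell VM, a human fetal ventral-midbrain neural progenitor line, was differentiated without mitogens. Blinded raters scored images stained for doublecortin (early neurons) or tyrosine hydroxylase (dopaminergic neurons) against untreated wells (0 = no change). Scores were averaged across repeats and both raters, and compounds averaging 2 or more were selected as hits for retesting.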

For the compound `CC(C)(C)NC[C@H](O)c1ccc(O)c(CO)c1` [Levalbuterol hydrochloride], the neuronal differentiation score in the test with ReNCell VM [1] (library: Prestwick) is inactive: 0. Further, the “dopaminergic neuron differentiation score” value in the test on ReNCell VM [2] (library: Prestwick) is inactive: 0.

In the case of `CC(=O)NCCc1ccc(O)c(O)c1` [N-Acetyldopamine monohydrate], in the test with ReNCell VM [1] (library: LOPAC), the neuronal differentiation score is inactive: 0. The “dopaminergic neuron differentiation score” value in the test on ReNCell VM [2] (library: LOPAC) was inactive: 1.

`CCN(CC)C(=O)/C(C#N)=C/c1cc(O)c(O)c([N+](=O)[O-])c1` [Entacapone]: the neuronal differentiation score in the test on ReNCell VM [1] (library: Prestwick) was inactive: 0. The “dopaminergic neuron differentiation score” value in the test with ReNCell VM [2] (library: Prestwick) is inactive: 0.

Turning to `CSC(=N)NCCC[C@H](N)C(=O)O` [S-Methyl-L-thiocitrulline acetate], in the test on ReNCell VM [1] (library: LOPAC), the neuronal differentiation score was inactive: 0. The “dopaminergic neuron differentiation score” value with ReNCell VM [2] (library: LOPAC) was inactive: 0.

Regarding `CCOCCn1c(N2CCCN(C)CC2)nc2ccccc21` [Emedastine], the neuronal differentiation score in the test on ReNCell VM [1] (library: Prestwick) is inactive: 0. Further, the “dopaminergic neuron differentiation score” value in the test with ReNCell VM [2] (library: Prestwick) was inactive: 0.

Regarding `O=C(O)c1c(Sc2ccccc2)c2cc(Cl)ccc2n1Cc1ccc(Cl)cc1`, the neuronal differentiation score in the test on ReNCell VM [1] (library: Tocriscreen) is inactive: 0. Besides, in the test with ReNCell VM [2] (library: Tocriscreen), the “dopaminergic neuron differentiation score” value was inactive: 0.

For the compound `CN(CCCN1c2ccccc2CCc2ccccc21)CC(=O)c1ccc(Cl)cc1` [Lofepramine], the neuronal differentiation score with ReNCell VM [1] (library: Tocriscreen) was inactive: 0. In the test with ReNCell VM [2] (library: Tocriscreen), the “dopaminergic neuron differentiation score” value is inactive: 0.

Turning to `CC(C)n1c(/C=C/C(O)CC(O)CC(=O)O)c(-c2ccc(F)cc2)c2ccccc21` (configuration not stated) [Fluvastatin sodium salt], the neuronal differentiation score in the test with ReNCell VM [1] (library: Prestwick) was inactive: 1. Further, in the test with ReNCell VM [2] (library: Prestwick), the “dopaminergic neuron differentiation score” value was inactive: 0.

On to `COc1c2ccoc2cc2oc(=O)ccc12`, for which, in the test on ReNCell VM [1] (library: Spectrum), the neuronal differentiation score is inactive: 0. The “dopaminergic neuron differentiation score” value with ReNCell VM [2] (library: Spectrum) is inactive: 0.

`COC(=O)C[C@H]1C(C)(C)[C@@H](OC(C)=O)[C@@H]2CC3C4CC(=O)O[C@@H](c5ccoc5)[C@]4(C)CCC3[C@@]1(C)C2=O` (some centres not stated): in the test with ReNCell VM [1] (library: Spectrum), the neuronal differentiation score was inactive: 0. In the test on ReNCell VM [2] (library: Spectrum), the “dopaminergic neuron differentiation score” value was inactive: 0.

As to `CCCCn1c(=O)c2[nH]c(C34CC5CC(CC3C5)C4)nc2n(CCCO)c1=O`, the neuronal differentiation score in the test with ReNCell VM [1] (library: Tocriscreen) is inactive: 0. In addition, the “dopaminergic neuron differentiation score” value in the test on ReNCell VM [2] (library: Tocriscreen) was inactive: 0.

In the case of `CC[C@H](C)C(=O)O[C@H]1C[C@H](O)C=C2C=C[C@H](C)[C@H](CC[C@@H](O)C[C@@H](O)CC(=O)O)[C@H]21` [Pravastatin], the neuronal differentiation score with ReNCell VM [1] (library: Prestwick) was inactive: 0. The “dopaminergic neuron differentiation score” value in the test on ReNCell VM [2] (library: Prestwick) is active: 3.

Regarding `Cn1ccnc1S`, the neuronal differentiation score in the test with ReNCell VM [1] (library: Spectrum) is inactive: 0. Also, in the test with ReNCell VM [2] (library: Spectrum), the “dopaminergic neuron differentiation score” value was inactive: 0.

As for `COc1c(O)cc2c(c1O)[C@@H]1O[C@H](CO)[C@@H](O)[C@H](O)[C@H]1OC2=O` [Bergenin monohydrate], the neuronal differentiation score in the test on ReNCell VM [1] (library: Phytochemical) is inactive: 0. The “dopaminergic neuron differentiation score” value in the test with ReNCell VM [2] (library: Phytochemical) was inactive: 0.

As to `CNC(=O)[C@H]1O[C@@H](n2cnc3c(NCc4ccc(N)cc4)ncnc32)[C@H](O)[C@@H]1O`, in the test on ReNCell VM [1] (library: LOPAC), the neuronal differentiation score is inactive: 0. Besides, the “dopaminergic neuron differentiation score” value with ReNCell VM [2] (library: LOPAC) was inactive: 0.

As for `C[C@H](CCC(=O)O)[C@H]1CC[C@H]2[C@@H]3[C@H](O)C[C@@H]4C[C@H](O)CC[C@]4(C)[C@H]3C[C@H](O)[C@]12C`, the neuronal differentiation score with ReNCell VM [1] (library: Spectrum) was inactive: 0. Moreover, in the test on ReNCell VM [2] (library: Spectrum), the “dopaminergic neuron differentiation score” value is inactive: 0.

In the case of `N#C/C(=C/c1ccc(O)c(O)c1)C(=O)NCc1ccccc1` [Tyrphostin AG 490], the neuronal differentiation score in the test on ReNCell VM [1] (library: LOPAC) is inactive: 0. For the same compound, in the test with ReNCell VM [2] (library: LOPAC), the “dopaminergic neuron differentiation score” value was active: 2.

With `Cc1cc(O)c(C=O)c2c1C(=O)Oc1c(COC(=O)/C=C/C(=O)O)c(O)c(C(=O)O)c(C)c1O2`, the neuronal differentiation score in the test with ReNCell VM [1] (library: Spectrum) was inactive: 0. Besides, the “dopaminergic neuron differentiation score” value in the test on ReNCell VM [2] (library: Spectrum) is inactive: 0.

Turning to `COc1cc([S+](C)[O-])ccc1-c1nc2cccnc2[nH]1` (configuration not stated) [Sulmazole], the neuronal differentiation score in the test with ReNCell VM [1] (library: Prestwick) is inactive: 0. For the same compound, in the test on ReNCell VM [2] (library: Prestwick), the “dopaminergic neuron differentiation score” value was inactive: 0.

For the compound `CC(=O)Nc1cc2ccccc2oc1=O` [3-Acetamidocoumarin], the neuronal differentiation score in the test with ReNCell VM [1] (library: Phytochemical) was inactive: 0. The “dopaminergic neuron differentiation score” value in the test with ReNCell VM [2] (library: Phytochemical) was inactive: 0.

For `c1ccc2oc(C3=NCCN3)cc2c1` [2-BFI hydrochloride], the neuronal differentiation score with ReNCell VM [1] (library: Tocriscreen) is inactive: 0. For the same compound, the “dopaminergic neuron differentiation score” value in the test with ReNCell VM [2] (library: Tocriscreen) is inactive: 0.

`CN/C(=N\c1ccc(C2=NNC(=O)CC2C)cc1)NC#N` (configuration not stated): the neuronal differentiation score with ReNCell VM [1] (library: LOPAC) is inactive: 0. Besides, the “dopaminergic neuron differentiation score” value in the test on ReNCell VM [2] (library: LOPAC) is inactive: 0.

`C/C(=C(\CCOP(=O)(O)O)SC(=O)c1ccccc1)N(C=O)Cc1cnc(C)nc1N`: in the test with ReNCell VM [1] (library: Spectrum), the neuronal differentiation score is inactive: 0. Besides, the “dopaminergic neuron differentiation score” value with ReNCell VM [2] (library: Spectrum) is inactive: 0.

With `NS(=O)(=O)c1cc2c(cc1C(F)(F)F)NC(Cc1ccccc1)NS2(=O)=O` (configuration not stated), the neuronal differentiation score in the test with ReNCell VM [1] (library: Spectrum) is inactive: 0. For the same compound, the “dopaminergic neuron differentiation score” value in the test with ReNCell VM [2] (library: Spectrum) was inactive: 0.

Take `COc1c(O)cccc1O`: in the test on ReNCell VM [1] (library: Spectrum), the neuronal differentiation score is inactive: 0. Further, in the test on ReNCell VM [2] (library: Spectrum), the “dopaminergic neuron differentiation score” value was inactive: 0.

`CN(C)CCN1C(=O)c2ccccc2N(C)c2ccccc21` [Dibenzepine hydrochloride]: the neuronal differentiation score in the test on ReNCell VM [1] (library: Prestwick) is inactive: 0. Further, in the test on ReNCell VM [2] (library: Prestwick), the “dopaminergic neuron differentiation score” value was inactive: 0.
